Results from publication doi:10.1101/477745.
No constants are given. Whether binding was seen depends on the method and setting. For part of these data: In cells and extracts the contact can be indirect. Some binding calls cover weakened binding; strength is not graded here. For part of these data: Tags and fused reporters may be left off the sequences shown.

Amino acid sequences for entries named in this document (tags omitted).
UniProt Q2FF45, whole entry: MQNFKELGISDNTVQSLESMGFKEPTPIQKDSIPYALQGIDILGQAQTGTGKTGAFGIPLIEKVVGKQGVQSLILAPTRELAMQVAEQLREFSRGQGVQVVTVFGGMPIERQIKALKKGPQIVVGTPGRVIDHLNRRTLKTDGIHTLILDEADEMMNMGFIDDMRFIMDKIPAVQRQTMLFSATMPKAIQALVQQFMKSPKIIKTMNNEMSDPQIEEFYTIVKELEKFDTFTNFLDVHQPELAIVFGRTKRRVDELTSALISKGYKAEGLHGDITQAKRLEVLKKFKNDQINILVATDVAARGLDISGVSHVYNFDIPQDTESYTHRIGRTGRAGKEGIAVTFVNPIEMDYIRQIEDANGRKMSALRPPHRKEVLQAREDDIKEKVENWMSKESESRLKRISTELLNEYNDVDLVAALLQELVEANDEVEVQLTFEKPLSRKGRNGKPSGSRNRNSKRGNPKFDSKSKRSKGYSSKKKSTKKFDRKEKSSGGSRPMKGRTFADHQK

Assays:
Era-T25 (S. aureus) = molecular target: T1, Era-T25 (S. aureus) (UniProt Q2FGF6); assay: two-hybrid
T1 sequence: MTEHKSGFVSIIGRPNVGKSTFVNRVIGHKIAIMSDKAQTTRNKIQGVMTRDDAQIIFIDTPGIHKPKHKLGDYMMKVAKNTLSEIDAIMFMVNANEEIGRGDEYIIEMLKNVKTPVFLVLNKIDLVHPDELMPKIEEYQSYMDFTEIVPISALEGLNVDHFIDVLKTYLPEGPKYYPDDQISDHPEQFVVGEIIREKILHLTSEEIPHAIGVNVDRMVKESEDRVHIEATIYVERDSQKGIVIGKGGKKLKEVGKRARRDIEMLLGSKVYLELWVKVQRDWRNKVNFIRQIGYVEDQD

[1] = molecular target: T2, Era fused to SB (small bit of luciferase) (S. aureus) (UniProt Q2FGF6); assay: split reporter
T2 sequence: T1 sequence

T25-Era (S. aureus) = molecular target: T3, T25-Era (S. aureus) (UniProt Q2FGF6); assay: two-hybrid
T3 sequence: T1 sequence

[2] = molecular target: T4, G domain of Era (1-180) fused to SB (S. aureus) (UniProt Q2FGF6); assay: split reporter
T4 sequence: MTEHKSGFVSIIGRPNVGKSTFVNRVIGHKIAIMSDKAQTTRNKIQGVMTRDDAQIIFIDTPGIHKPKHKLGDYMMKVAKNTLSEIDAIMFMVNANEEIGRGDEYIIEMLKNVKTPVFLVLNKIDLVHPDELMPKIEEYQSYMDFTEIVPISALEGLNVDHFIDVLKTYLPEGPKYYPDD

Substance	binding (Era-T25 (S. aureus))	also measured
Cdd (bacterial two-hybrid fusion) (from UniProt A0A0H2XFN0 1-134)	no binding	
Cdd (split luciferase fusion) (from UniProt A0A0H2XFN0 1-134)		binding [1]: no binding
full-length CshA fused to LB (large bit of luciferase) (from UniProt Q2FF45 1-506)		binding [2]: binds

Continued, in another order:

binding (Era-T25 (S. aureus))	Substance	also measured
binds	CshA-T18 (from UniProt Q2FF45 1-506)	binding (T25-Era (S. aureus)): binds
no binding	DgkA (bacterial two-hybrid fusion) (from UniProt A0A0H2XF69 1-114)	
